# This list holds what a sample rich in strong results left over.
# Columns and labels:
# HCoV-229E = test system: HCoV-229E; set-up: species or system Huh-7; HTS, protection from HCoV-229E induced cell death, luminescent cell viability (CellCounting-Lite 2.0), inhibition rate; settings: 24 h post infection, 1 h compound pre-incubation; 10 µM; inhibitor
# HCoV-OC43 = test system: HCoV-OC43; set-up: species or system RD; HTS, protection from HCoV-OC43 induced cell death, luminescent cell viability (CellCounting-Lite 2.0), inhibition rate; settings: 24 h post infection, 1 h compound pre-incubation; 10 µM; inhibitor
smiles,measurement,setting,value
Clc1ccc2c(c1)CCc1cccnc1C2=C1CCNCC1 [Desloratadine],229E Inhibition rate,HCoV-229E,30.1%
same,OC43 Inhibition rate,HCoV-OC43,29.2%
